We go through 68 sequences from PubChem BioAssay AID1347426 (Functional Genomics Laboratory (NCATS/FGL), 2020).

In all, about 31,000 sequences went through this assay and about 1,400 (4.5%) were called active.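 Rule for the calls: active = median seed-adjusted z-score above 1 or below -1; inactive = the rest.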 Some of the results follow.

The nature of the test: Novel Modifiers of Survival Motor Neuron (SMN) Protein: Gene Identification via Genome-wide siRNA Screen.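 Note: luminescence tracks full-length SMN protein made from the SMN2 reporter.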 The note with it: HEK293T SMN2-luciferase reporter, siRNA knockdown, 72 h; actives lie on both sides. Summed up:
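Luciferase signal, proportional to full-length SMN made from an SMN2 cDNA reporter in stable HEK293T cells, was read 72 h after siRNA reverse transfection. Values were expressed as MAD scores after non-targeting-control normalization and log10 conversion; seed analysis flagged off-targets.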
(In general: Reporter assays use an easily measured gene product as a stand-in for the process of interest.)
Consider CGAUCGGAUUGUAAGGACATT against EML4, for which the median seed-adjusted z-score was inactive: 0.958.
To GGAGCUUUCUAACCAUGUUTT against MTNR1B belongs inactive: -0.393; to CUAACGAACUGAUCUGGUUTT against MAP3K4, inactive: 0.72.
Turning to CAGAGACUCUAGAACUUAUTT against MYBL1, the median seed-adjusted z-score is inactive: 0.344.
For the sequence GAACAGUAUUCACCUAGUUTT against FGFR2, the median seed-adjusted z-score is inactive: 0.158.
Under GCGAAGAGAUCUACAUUAATT against ABR stands inactive: 0.314; under AGACCGAACUGGUUUCGCUTT against CDKN2C, inactive: -0.0789.
To GCCUCAGUGUUAUUCGAUATT against MAP1B belongs inactive: 0.139.
Under CGAGUUAUUGAGUAUCAUATT against TEX14 stands inactive: -0.107.
For GGGUCGUCAGUUACAAGGATT against RIPK5, the median seed-adjusted z-score is inactive: -0.00523.
To GAAGUGAGGUUUCCACUGUTT against FOXP3 belongs inactive: -0.421; to CCACCUUACUUUCCUGAAUTT against TMEM171, inactive: 0.278.
Regarding GUAUGAGGCUAUGACUAAATT against SSX2, the median seed-adjusted z-score is inactive: -0.583.
To GGCUCACAGGUGAUCAUCATT against ZNF653 belongs inactive: -0.202; to GAUUAUUAAGGGCAAACCATT against SLC22A11, inactive: 0; to GCUUUCUAAUGAAAGUAGATT against OSBPL3, inactive: 0.0159.
To GCCUUUAUGUGGACAUUAATT against SLCO2B1 belongs inactive: 0.289; to AAAUGGAAGGAAUAGGUUUTT against ARL6IP5, inactive: -0.202.
On to ACACGGCAUUAAAAAGCUATT against JRK, for which the median seed-adjusted z-score was inactive: -0.624.
Under GAUCAGUCUUUAUGCUGAATT against VPS41 stands inactive: 0.52; under AGUUCAGAGGAACACCUAATT against EDN1, inactive: 0.0717.
Under UCGUCAUGUUGAACUAUAATT against ERBB3 stands inactive: -0.561; under GGAGAAAACCUUCGAGCAGTT against NKX6-2, inactive: 0.101; under CAACCAAUGCGACCUUAAATT against PTP4A1, inactive: 0.103.
GGAACACUUUUUGAACUCATT against SKP1: the median seed-adjusted z-score is inactive: -0.0492.
For the sequence CGACAGCGGAUGUAAACUATT against PKD1, the median seed-adjusted z-score was inactive: -0.228.
With GACUAUCAUUGACAUCAAUTT against ADAMTS5, the median seed-adjusted z-score was inactive: -0.306.
Take GCUCAAGAGUCUAAACGAUTT against ZC3H7A: the median seed-adjusted z-score is inactive: 0.208.
To GGAUGUAAACAGUCUUCGATT against JMJD1A belongs inactive: 0.466; to GCUGCAAGGUGAUCAUUGATT against LIMK2, inactive: -0.0288; to CCAGGUCUCGAAAACCAAATT against EN2, inactive: 0.319.
Under GAAUCGGCAAGGUUGGAAATT against PSMD7 stands inactive: 0.0973; under GAGUGAUCAGAGACCGAAATT against IARS, inactive: -0.198.
To CAGCUGUACCGAUUAAGCATT against MEP1A belongs inactive: 0.209.
As for CGACAGCGAUACCUCCUUATT against LMX1B, the median seed-adjusted z-score is inactive: 0.125.
In the case of GGAACAGUUCUAUUCUAUUTT against SORT1, the median seed-adjusted z-score was inactive: -0.43.
To CGUAUAUGCCGAGAUCUCATT against PCNA belongs inactive: 0.0727.
Turning to GGACUGGUCUUGUUAGGCUTT against SEC24C, the median seed-adjusted z-score was inactive: 0.163.
Turning to GCAUCUACAGUGGAUUGUATT against LRRN3, the median seed-adjusted z-score was inactive: 0.
Under CCAACGAUCAUGUUAAUAATT against FH stands inactive: 0.182; under GGUGAGCUUGGAUAUGAAATT against OGFRL1, inactive: 0.0339.
As for GUCUGUUAUCAGAACUUAATT against IDE, the median seed-adjusted z-score was inactive: -0.081.
As to GGAUAAUACAAAUCUACGATT against IL1RL2, the median seed-adjusted z-score was inactive: -0.555.
For the sequence GGGUUGCUAGAAAAUCGUATT against USP37, the median seed-adjusted z-score is inactive: 0.0907.
Consider GCUGGAAGCCUGUCAAAGATT against OAS1, for which the median seed-adjusted z-score was inactive: 0.442.
To GCUGUCUACUUACCACCAATT against ESD belongs inactive: -0.196; to GAGAGCAAUUCUACCAUAATT against HMGCS2, inactive: -0.465.
To GCAACUACGUCUUCACCAUTT against CACNA1H belongs inactive: -0.147; to CAAUGUUAGGAGUCAGUCATT against ACTL6A, active: 1.11.
For GAGUGGUCUUUUCAACACUTT against TGIF1, the median seed-adjusted z-score is inactive: 0.303.
Take CACUAACUCUGGACCCUAATT against TRIM69: the median seed-adjusted z-score was inactive: 0.214.
On to GAAUUAUCCCAUCUCAGUATT against MYOZ2, for which the median seed-adjusted z-score was inactive: 0.315.
With GGACAGAGGGCAACUAUAATT against KCNV2, the median seed-adjusted z-score is active: -1.13.
Turning to CAGCUAUGGUUCUUCCGAUTT against SLC35B2, the median seed-adjusted z-score was inactive: -0.313.
Regarding UCUCAGAUCUCUUCCCAGATT against ROBO4, the median seed-adjusted z-score is inactive: -0.431.
Under GAUUUUCGCACAAUUGGAATT against PANK3 stands inactive: -0.185; under CCCUGUACGUGUACAUCAUTT against MPG, inactive: -0.0888.
Under GAAGAUUGCUCAGCGAUUATT against PRPF3 stands inactive: -0.289; under GUCCUGAACUGGUCAAUGATT against ZC3H15, inactive: 0.191.
To GAAUGUUGACUCUACUGCATT against POLR3K belongs inactive: 0.504.
As for GUCUACAACUCCACACUGATT against WFS1, the median seed-adjusted z-score is inactive: 0.696.
As to GGGAGUUUCUAGGAUGAAATT against SLC45A3, the median seed-adjusted z-score is inactive: -0.0257.
Under GGGACAUGUUUGUGAAGGATT against SDK1 stands inactive: 0.604.
GGAGGUCCCAAGAAUCUCATT against ERCC6: the median seed-adjusted z-score is inactive: 0.0421.
To GCUUUGUUAUGUAAGCUUATT against ZNF771 belongs inactive: 0.108; to GCGUAUUAGGAGUCUCAGATT against DTX3L, inactive: 0.0785.
To CGAACCGGAUGGUAGUGUATT against ALOXE3 belongs inactive: -0.504.
To GCAUCAGCUUCGAUGAGUATT against S100A16 belongs inactive: 0.24.
